Laboratory results taken from PubChem BioAssay AID226 (DTP/NCI, 2004).
The list shows only some results of the screen, not a fair sample: it is rich in T/C values a quarter to a half above the control, in often repeated tests (any T/C) and in doses without a T/C. Further doses and runs are listed elsewhere. T/C is the treated group as % of the vehicle group. Some doses have a count of surviving animals in place of a T/C: the source holds a T/C of zero for them, seemingly a mark for toxic or unscored doses. Some doses without a T/C left all or most animals alive at the check, yet need not have been tolerated: survival well below the control is almost never listed, so the zero probably covers shortened survival too. Survivors were counted at the toxicity check, usually on the fifth day, unless a day is given; later deaths do not show. Schedules are NCI's codes, taken here to give the interval after Q, in days (D) or hours (H), and the number of doses after X. For survival time, this PubChem deposit counts one and a half times the control or more as active, and values a quarter to a half above the control carry no call in these data; other NCI protocols may use other cut-offs. Some T/C values carry the count of animals alive at the toxicity check (mostly the fifth day); without a count, all were alive then. Some entries were tested several times; the results are listed from low to high. Brackets with × stand for listed records that agree.

Tested on: B6C3F1 mice, intracerebral ependymoblastoma, median survival T/C
Experiment: NCI In Vivo Anticancer Drug Screen. Data for tumor model Ependymoblastoma (intracerebral) in B6C3F1 mice
Details: T/C endpoint: median survival time, higher T/C = longer survival
Experimental: The antitumor activity of compounds was measured in mice bearing transplantable tumors. Survival or tumor size were measured and the results are expressed as the measurement made in the treated group (T) divided by the measurement made in the vehicle treated control group (C). The tumor model used in this assay is Ependymoblastoma (intracerebral) in B6C3F1 mice

[1] = dose: 32.0 mg/kg/injection, schedule: Q01DX005 (ip), vehicle: saline
[2] = dose: 64.0 mg/kg/injection, schedule: Q01DX005 (ip), vehicle: saline
[3] = dose: 128.0 mg/kg/injection, schedule: Q01DX005 (ip), vehicle: saline
[4] = dose: 256.0 mg/kg/injection, schedule: Q01DX005 (ip), vehicle: saline
[5] = dose: 512.0 mg/kg/injection, schedule: Q01DX005 (ip), vehicle: saline
[6] = dose: 0.5 mg/kg/injection, schedule: Q01DX005 (ip), vehicle: Klucel (hydroxypropylcellulose) (HPC)
[7] = dose: 32.0 mg/kg/injection, schedule: Q01DX005 (ip), vehicle: Klucel (hydroxypropylcellulose) (HPC)
[8] = dose: 2.0 mg/kg/injection, schedule: Q01DX005 (ip), vehicle: Klucel (hydroxypropylcellulose) (HPC)
[9] = dose: 4.0 mg/kg/injection, schedule: Q01DX005 (ip), vehicle: saline
[10] = dose: 8.0 mg/kg/injection, schedule: Q01DX005 (ip), vehicle: saline
[11] = dose: 16.0 mg/kg/injection, schedule: Q01DX005 (ip), vehicle: Klucel (hydroxypropylcellulose) (HPC)
[12] = dose: 16.0 mg/kg/injection, schedule: Q01DX005 (ip), vehicle: saline
[13] = dose: 2.0 mg/kg/injection, schedule: Q01DX005 (ip), vehicle: saline

SMILES: CCCCC(=O)OCC1OC(n2cnc3c(=S)nc[nH]c32)C(OC(=O)CCCC)C1OC(=O)CCCC (centres undefined)
- survivor count (dose: 200.0 mg/kg/injection, schedule: Q01DX005 (ip), vehicle: saline with Tween-80): 9 of 10

SMILES: Cc1cc2nc3ccc(N)cc3oc-2cc1=[N+](C)C
- survivor count (dose: 100.0 mg/kg/injection, schedule: Q01DX005 (ip), vehicle: saline): 8 of 10
- survivor count (dose: 200.0 mg/kg/injection, schedule: Q01DX005 (ip), vehicle: saline): 0 of 10

SMILES: CN(Cc1ccccc1)/N=N/c1nc[nH]c1C(N)=O
- T/C [1]: 128 % of control
- T/C [2]: 133 % of control
- T/C [3]: 138 % of control
- survivor count [4]: 0 of 10
- survivor count [5]: 0 of 10

SMILES: CN(CCO)/N=N/c1nc[nH]c1C(N)=O
- T/C [3]: 131 % of control
- T/C [4]: 143 % of control
- T/C [5]: 131 % of control
- survivor count [5]: 6 of 10

SMILES: O=c1ccc2ccccc2o1
- survivor count (dose: 180.0 mg/kg/injection, schedule: Q01DX005 (ip), vehicle: saline with Tween-80): 6 of 10
- survivor count (dose: 200.0 mg/kg/injection, schedule: Q01DX005 (ip), vehicle: Klucel (hydroxypropylcellulose) (HPC)): 2 of 10
- survivor count (dose: 360.0 mg/kg/injection, schedule: Q01DX005 (ip), vehicle: saline with Tween-80): 5 of 10
- survivor count (dose: 400.0 mg/kg/injection, schedule: Q01DX005 (ip), vehicle: Klucel (hydroxypropylcellulose) (HPC)): 0 of 10
- survivor count (dose: 720.0 mg/kg/injection, schedule: Q01DX005 (ip), vehicle: saline with Tween-80): 6 of 10

SMILES: CSCS(=O)C[C@H](CO)NC(=O)/C=C/c1c(C)[nH]c(=O)[nH]c1=O (some centres undefined)
- survivor count (dose: 0.06 mg/kg/injection, schedule: Q01DX005 (ip), vehicle: Klucel (hydroxypropylcellulose) (HPC)): 0 of 10
- survivor count (dose: 0.12 mg/kg/injection, schedule: Q01DX005 (ip), vehicle: Klucel (hydroxypropylcellulose) (HPC)): 0 of 10
- survivor count (dose: 0.25 mg/kg/injection, schedule: Q01DX005 (ip), vehicle: Klucel (hydroxypropylcellulose) (HPC)): 0 of 10
- survivor count [6]: 0 of 10

SMILES: CC(=O)OCC1OC(n2cnc3c(=S)nc[nH]c32)C(OC(C)=O)C1OC(C)=O (centres undefined)
- survivor count (dose: 400.0 mg/kg/injection, schedule: Q01DX005 (ip), vehicle: suspension in saline): 10 of 10

SMILES: C[C@]1(O)CC[C@H]2[C@@H]3CCC4=CC(=O)CC[C@]4(C)[C@@]3(F)[C@@H](O)C[C@@]21C
- survivor count [7]: 6 of 6
- survivor count (dose: 512.0 mg/kg/injection, schedule: Q01DX005 (ip), vehicle: Klucel (hydroxypropylcellulose) (HPC)): 3 of 6

SMILES: COc1ccc2c(c1O)-c1cccc3c1[C@@H](C2)N(CCCl)CC3
- survivor count [8]: 10 of 10
- survivor count [9]: 10 of 10
- survivor count [10]: 10 of 10
- survivor count [11]: 2 of 10
- survivor count [12]: 10 of 10
- survivor count [7]: 0 of 10
- survivor count [1]: 2 of 10
- survivor count (dose: 64.0 mg/kg/injection, schedule: Q01DX005 (ip), vehicle: Klucel (hydroxypropylcellulose) (HPC)): 0 of 10
- survivor count [2]: 0 of 10
- survivor count [3]: 0 of 10

SMILES: N[C@H](C(=O)O)[C@@H]1CC(Cl)=NO1
- survivor count (dose: 32.0 mg/kg/injection, schedule: Q01DX005 (ip), vehicle: saline + Tween-80 + alcohol): 10 of 10
- survivor count [1]: 10 of 10
- survivor count (dose: 64.0 mg/kg/injection, schedule: Q01DX005 (ip), vehicle: saline + Tween-80 + alcohol): 10 of 10

SMILES: CC(=O)OCC1OC(n2cnc3c(=S)nc(N)[nH]c32)C(OC(C)=O)C1OC(C)=O (centres undefined)
- T/C (dose: 12.5 mg/kg/injection, schedule: Q01DX005 (ip), vehicle: saline): 125 % of control
- survivor count (dose: 25.0 mg/kg/injection, schedule: Q01DX005 (ip), vehicle: saline): 10 of 10
- survivor count (dose: 50.0 mg/kg/injection, schedule: Q01DX005 (ip), vehicle: saline): 10 of 10

SMILES: C#CCN(C)/N=N/c1nc[nH]c1C(N)=O
- T/C (dose: 16.0 mg/kg/injection, schedule: Q01DX005 (ip), vehicle: saline with Tween-80): 134 % of control
- T/C (dose: 64.0 mg/kg/injection, schedule: Q01DX005 (ip), vehicle: saline with Tween-80): 146 % of control
- survivor count (dose: 256.0 mg/kg/injection, schedule: Q01DX005 (ip), vehicle: saline with Tween-80): 5 of 10

SMILES: CCCCCCC(=O)O[C@H]1CC[C@H]2[C@@H]3CCC4=CC(=O)CC[C@]4(C)[C@H]3CC[C@]12C
- survivor count (dose: 256.0 mg/kg/injection, schedule: Q01DX005 (ip), vehicle: Klucel (hydroxypropylcellulose) (HPC)): 0 of 6

SMILES: O=P1(N(CCCl)CCCl)NC(OO)CCO1 (centres undefined)
- survivor count (dose: 320.0 mg/kg/injection, schedule: Q01DX001 (ip), vehicle: saline): 1 of 10

SMILES: C1CN1c1nc(N2CC2)nc(N2CC2)n1
- T/C (dose: 0.5 mg/kg/injection, schedule: Q01DX005 (ip), vehicle: saline, evaluated on day 45): 135 % of control
- T/C (dose: 0.5 mg/kg/injection, schedule: Q01DX005 (ip), vehicle: saline, evaluated on day 60): 125 % of control
- survivor count [13]: 9 of 10

SMILES: S=P(N1CC1)(N1CC1)N1CC1
- T/C (dose: 1.0 mg/kg/injection, schedule: Q01DX005 (ip), vehicle: saline): 140 % of control [9 of 10 alive]
- T/C [13]: 142 % of control
- T/C [9]: 146 % of control
- survivor count [12]: 10 of 10

SMILES: CC1CCC(NC(=O)N(CCCl)N=O)CC1 (centres undefined)
- T/C [6]: 96, 100 [9 of 10 alive], 107, 108 [9 of 10 alive], 109, 111, 114 % of control
- T/C (dose: 1.0 mg/kg/injection, schedule: Q01DX005 (ip), vehicle: Klucel (hydroxypropylcellulose) (HPC)): 93, 102, 108, 110, 111, 113, 115 % of control
- T/C [8]: 100, 110, 121 (2×), 123, 127, 133 % of control
- T/C (dose: 4.0 mg/kg/injection, schedule: Q01DX005 (ip), vehicle: Klucel (hydroxypropylcellulose) (HPC)): 116 [9 of 10 alive], 117, 120, 129, 132, 137, 152 % of control
- T/C (dose: 4.0 mg/kg/injection, schedule: Q01DX009 (ip), vehicle: Klucel (hydroxypropylcellulose) (HPC)): 144 % of control
- T/C (dose: 6.0 mg/kg/injection, schedule: Q01DX005 (ip), vehicle: saline): 129 % of control
- T/C (dose: 8.0 mg/kg/injection, schedule: Q01DX005 (ip), vehicle: Klucel (hydroxypropylcellulose) (HPC)): 119, 136, 138, 151, 155 [9 of 10 alive], 157, 211 % of control
- T/C [10]: 127 % of control
- T/C (dose: 8.0 mg/kg/injection, schedule: Q01DX009 (ip), vehicle: Klucel (hydroxypropylcellulose) (HPC)): 133 % of control
- T/C (dose: 12.5 mg/kg/injection, schedule: Q01DX001 (ip), vehicle: saline + alcohol): 138 % of control
- T/C [11]: 92, 109 [9 of 10 alive], 127, 128 [9 of 10 alive], 164, 193 % of control
- survivor count [11]: 10 of 10
- survivor count (dose: 16.0 mg/kg/injection, schedule: Q01DX009 (ip), vehicle: Klucel (hydroxypropylcellulose) (HPC)): 8 of 10
- T/C (dose: 32.0 mg/kg/injection, schedule: Q01DX001 (ip), vehicle: other): 144 % of control
- survivor count (dose: 100.0 mg/kg/injection, schedule: Q01DX001 (ip), vehicle: saline + alcohol): 5 of 10
- survivor count (dose: 200.0 mg/kg/injection, schedule: Q01DX001 (ip), vehicle: saline + alcohol): 1 of 10
- survivor count (dose: 256.0 mg/kg/injection, schedule: Q01DX001 (ip), vehicle: other): 4 of 10
